Measured values: article PMC11006493
No constants are given. Whether binding was seen depends on the method and setting. Binding seen in cells or lysates may run through a third protein. Some results given as binding are weak or reduced against the parent protein; the word gives no strength. Sequences can lack the tags named with a protein.

Amino acid sequences for entries named in this document (tags omitted).
UniProt Q9HCE7: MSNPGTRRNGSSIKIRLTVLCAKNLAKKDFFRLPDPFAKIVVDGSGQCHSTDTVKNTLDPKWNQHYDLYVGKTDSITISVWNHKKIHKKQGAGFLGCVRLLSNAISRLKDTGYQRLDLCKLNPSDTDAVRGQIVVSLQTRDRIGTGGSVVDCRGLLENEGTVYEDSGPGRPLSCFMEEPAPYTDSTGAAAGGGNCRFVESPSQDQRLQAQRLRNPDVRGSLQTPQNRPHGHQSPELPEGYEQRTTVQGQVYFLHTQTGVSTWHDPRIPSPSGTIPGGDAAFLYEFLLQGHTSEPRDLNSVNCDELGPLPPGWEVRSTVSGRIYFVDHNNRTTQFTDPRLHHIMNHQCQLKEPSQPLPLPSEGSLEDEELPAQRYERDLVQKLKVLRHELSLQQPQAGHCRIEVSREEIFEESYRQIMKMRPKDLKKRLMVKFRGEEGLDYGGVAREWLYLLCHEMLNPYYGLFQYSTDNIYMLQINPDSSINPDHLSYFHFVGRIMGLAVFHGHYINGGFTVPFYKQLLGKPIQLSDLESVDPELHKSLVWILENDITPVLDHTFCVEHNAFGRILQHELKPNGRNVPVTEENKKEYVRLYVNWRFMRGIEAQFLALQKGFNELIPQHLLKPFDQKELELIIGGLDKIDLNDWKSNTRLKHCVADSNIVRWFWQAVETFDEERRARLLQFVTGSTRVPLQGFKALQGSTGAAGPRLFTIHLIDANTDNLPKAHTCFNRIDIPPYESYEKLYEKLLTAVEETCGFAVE

Molecular target: T1, GSG2, Histone H3 associated protein kinase (Haspin) (human (endogenous in B-CPAP)) (UniProt Q8TF76)
T1 sequence: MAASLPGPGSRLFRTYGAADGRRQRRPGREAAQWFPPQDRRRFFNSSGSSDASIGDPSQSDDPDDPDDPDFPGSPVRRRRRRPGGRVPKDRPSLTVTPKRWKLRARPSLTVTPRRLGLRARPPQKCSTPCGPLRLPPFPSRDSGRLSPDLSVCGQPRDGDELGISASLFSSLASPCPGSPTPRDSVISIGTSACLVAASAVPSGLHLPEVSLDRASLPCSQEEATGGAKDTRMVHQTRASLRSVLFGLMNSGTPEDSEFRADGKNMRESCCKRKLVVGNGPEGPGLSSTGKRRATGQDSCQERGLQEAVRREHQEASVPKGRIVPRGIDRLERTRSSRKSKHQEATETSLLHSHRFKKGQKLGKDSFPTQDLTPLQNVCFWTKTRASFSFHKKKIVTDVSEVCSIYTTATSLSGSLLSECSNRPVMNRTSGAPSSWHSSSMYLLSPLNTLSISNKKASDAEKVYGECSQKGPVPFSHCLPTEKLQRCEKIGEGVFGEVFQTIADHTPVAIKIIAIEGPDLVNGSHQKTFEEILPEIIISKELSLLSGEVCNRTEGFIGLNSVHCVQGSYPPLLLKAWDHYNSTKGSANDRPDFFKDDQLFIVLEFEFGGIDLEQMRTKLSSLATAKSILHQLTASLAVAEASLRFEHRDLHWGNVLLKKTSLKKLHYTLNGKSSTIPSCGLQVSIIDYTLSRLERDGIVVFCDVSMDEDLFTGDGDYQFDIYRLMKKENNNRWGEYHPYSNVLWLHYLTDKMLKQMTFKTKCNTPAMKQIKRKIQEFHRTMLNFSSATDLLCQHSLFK
Assay: co-IP; proteins from B-CPAP cells immunoprecipitated with GSG2 and IgG antibodies; immunoblot with antibodies to GSG2 and SMURF1; endogenous proteins

SMURF1 (from UniProt Q9HCE7 1-757)
binding: binds
